Results from paper PMC4036362, “Normal Activation of Discoidin Domain Receptor 1 Mutants with Disulfide Cross-links, Insertions, or Deletions in the Extracellular Juxtamembrane Region” (The Journal of Biological Chemistry, 2014).
Results are given in words; binding and its absence hold for the method and conditions named. Binding seen in cells or lysates may run through a third protein. Some entries that bind do so weakly or less than the wild type.

Legend:
Experiment in all cases: cross-linking; disulfide cross-linking of introduced cysteines in transiently transfected HEK293 cells, untreated or with 10 ug/ml collagen I for 90 min at 37 °C; lysis in 1% Nonidet P-40 buffer with NEM; nonreducing SDS-PAGE on 5% gels, Western blot with anti-DDR1; efficiency as percent dimeric of total DDR1
[1] = biological target: DDR1 V408C/C422A (in the C287S/C422A background) (human) (UniProt Q08345)
[2] = biological target: DDR1 G377C (in the C287S background) (human) (UniProt Q08345)
[3] = biological target: DDR1 E412C/C422A (in the C287S/C422A background) (human) (UniProt Q08345)
[4] = biological target: DDR1 A417C (in the C287S background) (human) (UniProt Q08345)
[5] = biological target: DDR1 residue 418 to cysteine (in the C287S background) (human) (UniProt Q08345)
[6] = biological target: DDR1 residue 419 to cysteine (in the C287S background) (human) (UniProt Q08345)
[7] = biological target: DDR1 residue 420 to cysteine (in the C287S background) (human) (UniProt Q08345)
[8] = biological target: DDR1 G421C (in the C287S background) (human) (UniProt Q08345)

Molecule: DDR1 V408C/C422A (in the C287S/C422A background) (from UniProt Q08345 19-913) (receptor)
- binding [1]: binds

Molecule: DDR1 G377C (in the C287S background) (from UniProt Q08345 19-913) (receptor)
- binding [2]: binds

Molecule: DDR1 E412C/C422A (in the C287S/C422A background) (from UniProt Q08345 19-913) (receptor)
- binding [3]: binds

B1: DDR1 A417C (in the C287S background) (receptor, human, UniProt Q08345 19-913, looked up)
chain: DADMKGHFDPAKCRYALGMQDRTIPDSDISASSSWSDSTAARHSRLESSDGDGAWCPAGSVFPKEEEYLQVDLQRLHLVALVGTQGRHAGGLGKEFSRSYRLRYSRDGRRWMGWKDRWGQEVISGNEDPEGVVLKDLGPPMVARLVRFYPRADRVMSVCLRVELYGCLWRDGLLSYTAPVGQTMYLSEAVYLNDSTYDGHTVGGLQYGGLGQLADGVVGLDDFRKSQELRVWPGYDYVGWSNHSFSSGYVEMEFEFDRLRAFQAMQVHSNNMHTLGARLPGGVECRFRRGPAMAWEGEPMRHNLGGNLGDPRARAVSVPLGGRVARFLQCRFLFAGPWLLFSEISFISDVVNNSSPALGGTFPPAPWWPPGPPPTNFSSLELEPRGQQPVAKAEGSPTCILIGCLVAIILLLLLIIALMLWRLHWRRLLSKAERRVLEEELTVHLSVPGDTILINNRPGPREPPPYQEPRPRGNPPHSAPCVPNGSALLLSNPAYRLLLATYARPPRGPGPPTPAWAKPTNTQAYSGDYMEPEKPGAPLLPPPPQNSVPHYAEADIVTLQGVTGGNTYAVPALPPGAVGDGPPRVDFPRSRLRFKEKLGEGQFGEVHLCEVDSPQDLVSLDFPLNVRKGHPLLVAVKILRPDATKNARNDFLKEVKIMSRLKDPNIIRLLGVCVQDDPLCMITDYMENGDLNQFLSAHQLEDKAAEGAPGDGQAAQGPTISYPMLLHVAAQIASGMRYLATLNFVHRDLATRNCLVGENFTIKIADFGMSRNLYAGDYYRVQGRAVLPIRWMAWECILMGKFTTASDVWAFGVTLWEVLMLCRAQPFGQLTDEQVIENAGEFFRDQGRQVYLSRPPACPQGLYELMLRCWSRESEQRPPFSQLHRFLAEDALNTV
notes: discoidin domain receptor 1, isoform DDR1b, human; full-length cDNA in pRK5; source: HEK293, transiently transfected, in lysate
- binding [4]: binds

B2: DDR1 residue 418 to cysteine (in the C287S background) (receptor, human, UniProt Q08345 19-913, looked up)
chain: DADMKGHFDPAKCRYALGMQDRTIPDSDISASSSWSDSTAARHSRLESSDGDGAWCPAGSVFPKEEEYLQVDLQRLHLVALVGTQGRHAGGLGKEFSRSYRLRYSRDGRRWMGWKDRWGQEVISGNEDPEGVVLKDLGPPMVARLVRFYPRADRVMSVCLRVELYGCLWRDGLLSYTAPVGQTMYLSEAVYLNDSTYDGHTVGGLQYGGLGQLADGVVGLDDFRKSQELRVWPGYDYVGWSNHSFSSGYVEMEFEFDRLRAFQAMQVHSNNMHTLGARLPGGVECRFRRGPAMAWEGEPMRHNLGGNLGDPRARAVSVPLGGRVARFLQCRFLFAGPWLLFSEISFISDVVNNSSPALGGTFPPAPWWPPGPPPTNFSSLELEPRGQQPVAKAEGSPTACLIGCLVAIILLLLLIIALMLWRLHWRRLLSKAERRVLEEELTVHLSVPGDTILINNRPGPREPPPYQEPRPRGNPPHSAPCVPNGSALLLSNPAYRLLLATYARPPRGPGPPTPAWAKPTNTQAYSGDYMEPEKPGAPLLPPPPQNSVPHYAEADIVTLQGVTGGNTYAVPALPPGAVGDGPPRVDFPRSRLRFKEKLGEGQFGEVHLCEVDSPQDLVSLDFPLNVRKGHPLLVAVKILRPDATKNARNDFLKEVKIMSRLKDPNIIRLLGVCVQDDPLCMITDYMENGDLNQFLSAHQLEDKAAEGAPGDGQAAQGPTISYPMLLHVAAQIASGMRYLATLNFVHRDLATRNCLVGENFTIKIADFGMSRNLYAGDYYRVQGRAVLPIRWMAWECILMGKFTTASDVWAFGVTLWEVLMLCRAQPFGQLTDEQVIENAGEFFRDQGRQVYLSRPPACPQGLYELMLRCWSRESEQRPPFSQLHRFLAEDALNTV
notes: as for B1
- binding [5]: binds

B3: DDR1 residue 419 to cysteine (in the C287S background) (receptor, human, UniProt Q08345 19-913, looked up)
chain: DADMKGHFDPAKCRYALGMQDRTIPDSDISASSSWSDSTAARHSRLESSDGDGAWCPAGSVFPKEEEYLQVDLQRLHLVALVGTQGRHAGGLGKEFSRSYRLRYSRDGRRWMGWKDRWGQEVISGNEDPEGVVLKDLGPPMVARLVRFYPRADRVMSVCLRVELYGCLWRDGLLSYTAPVGQTMYLSEAVYLNDSTYDGHTVGGLQYGGLGQLADGVVGLDDFRKSQELRVWPGYDYVGWSNHSFSSGYVEMEFEFDRLRAFQAMQVHSNNMHTLGARLPGGVECRFRRGPAMAWEGEPMRHNLGGNLGDPRARAVSVPLGGRVARFLQCRFLFAGPWLLFSEISFISDVVNNSSPALGGTFPPAPWWPPGPPPTNFSSLELEPRGQQPVAKAEGSPTAICIGCLVAIILLLLLIIALMLWRLHWRRLLSKAERRVLEEELTVHLSVPGDTILINNRPGPREPPPYQEPRPRGNPPHSAPCVPNGSALLLSNPAYRLLLATYARPPRGPGPPTPAWAKPTNTQAYSGDYMEPEKPGAPLLPPPPQNSVPHYAEADIVTLQGVTGGNTYAVPALPPGAVGDGPPRVDFPRSRLRFKEKLGEGQFGEVHLCEVDSPQDLVSLDFPLNVRKGHPLLVAVKILRPDATKNARNDFLKEVKIMSRLKDPNIIRLLGVCVQDDPLCMITDYMENGDLNQFLSAHQLEDKAAEGAPGDGQAAQGPTISYPMLLHVAAQIASGMRYLATLNFVHRDLATRNCLVGENFTIKIADFGMSRNLYAGDYYRVQGRAVLPIRWMAWECILMGKFTTASDVWAFGVTLWEVLMLCRAQPFGQLTDEQVIENAGEFFRDQGRQVYLSRPPACPQGLYELMLRCWSRESEQRPPFSQLHRFLAEDALNTV
notes: discoidin domain receptor 1, isoform DDR1b, human; full-length cDNA in pRK5; also called TM cysteine mutant, residue 419; source: HEK293, transiently transfected, in lysate
- binding [6]: binds

B4: DDR1 residue 420 to cysteine (in the C287S background) (receptor, human, UniProt Q08345 19-913, looked up)
chain: DADMKGHFDPAKCRYALGMQDRTIPDSDISASSSWSDSTAARHSRLESSDGDGAWCPAGSVFPKEEEYLQVDLQRLHLVALVGTQGRHAGGLGKEFSRSYRLRYSRDGRRWMGWKDRWGQEVISGNEDPEGVVLKDLGPPMVARLVRFYPRADRVMSVCLRVELYGCLWRDGLLSYTAPVGQTMYLSEAVYLNDSTYDGHTVGGLQYGGLGQLADGVVGLDDFRKSQELRVWPGYDYVGWSNHSFSSGYVEMEFEFDRLRAFQAMQVHSNNMHTLGARLPGGVECRFRRGPAMAWEGEPMRHNLGGNLGDPRARAVSVPLGGRVARFLQCRFLFAGPWLLFSEISFISDVVNNSSPALGGTFPPAPWWPPGPPPTNFSSLELEPRGQQPVAKAEGSPTAILCGCLVAIILLLLLIIALMLWRLHWRRLLSKAERRVLEEELTVHLSVPGDTILINNRPGPREPPPYQEPRPRGNPPHSAPCVPNGSALLLSNPAYRLLLATYARPPRGPGPPTPAWAKPTNTQAYSGDYMEPEKPGAPLLPPPPQNSVPHYAEADIVTLQGVTGGNTYAVPALPPGAVGDGPPRVDFPRSRLRFKEKLGEGQFGEVHLCEVDSPQDLVSLDFPLNVRKGHPLLVAVKILRPDATKNARNDFLKEVKIMSRLKDPNIIRLLGVCVQDDPLCMITDYMENGDLNQFLSAHQLEDKAAEGAPGDGQAAQGPTISYPMLLHVAAQIASGMRYLATLNFVHRDLATRNCLVGENFTIKIADFGMSRNLYAGDYYRVQGRAVLPIRWMAWECILMGKFTTASDVWAFGVTLWEVLMLCRAQPFGQLTDEQVIENAGEFFRDQGRQVYLSRPPACPQGLYELMLRCWSRESEQRPPFSQLHRFLAEDALNTV
notes: discoidin domain receptor 1, isoform DDR1b, human; full-length cDNA in pRK5; also called TM cysteine mutant, residue 420; source: HEK293, transiently transfected, in lysate
- binding [7]: binds

B5: DDR1 G421C (in the C287S background) (receptor, human, UniProt Q08345 19-913, looked up)
chain: DADMKGHFDPAKCRYALGMQDRTIPDSDISASSSWSDSTAARHSRLESSDGDGAWCPAGSVFPKEEEYLQVDLQRLHLVALVGTQGRHAGGLGKEFSRSYRLRYSRDGRRWMGWKDRWGQEVISGNEDPEGVVLKDLGPPMVARLVRFYPRADRVMSVCLRVELYGCLWRDGLLSYTAPVGQTMYLSEAVYLNDSTYDGHTVGGLQYGGLGQLADGVVGLDDFRKSQELRVWPGYDYVGWSNHSFSSGYVEMEFEFDRLRAFQAMQVHSNNMHTLGARLPGGVECRFRRGPAMAWEGEPMRHNLGGNLGDPRARAVSVPLGGRVARFLQCRFLFAGPWLLFSEISFISDVVNNSSPALGGTFPPAPWWPPGPPPTNFSSLELEPRGQQPVAKAEGSPTAILICCLVAIILLLLLIIALMLWRLHWRRLLSKAERRVLEEELTVHLSVPGDTILINNRPGPREPPPYQEPRPRGNPPHSAPCVPNGSALLLSNPAYRLLLATYARPPRGPGPPTPAWAKPTNTQAYSGDYMEPEKPGAPLLPPPPQNSVPHYAEADIVTLQGVTGGNTYAVPALPPGAVGDGPPRVDFPRSRLRFKEKLGEGQFGEVHLCEVDSPQDLVSLDFPLNVRKGHPLLVAVKILRPDATKNARNDFLKEVKIMSRLKDPNIIRLLGVCVQDDPLCMITDYMENGDLNQFLSAHQLEDKAAEGAPGDGQAAQGPTISYPMLLHVAAQIASGMRYLATLNFVHRDLATRNCLVGENFTIKIADFGMSRNLYAGDYYRVQGRAVLPIRWMAWECILMGKFTTASDVWAFGVTLWEVLMLCRAQPFGQLTDEQVIENAGEFFRDQGRQVYLSRPPACPQGLYELMLRCWSRESEQRPPFSQLHRFLAEDALNTV
notes: as for B1
- binding [8]: binds
